Measurements as given in patent EP4790063A1, “PEPTIDE HAVING ACTIVITY FOR […] OF MARINE FOULING” (National University Corporation Hokkaido University, priority 2023, dated 2025).
Part of at least one peptide drawing is inferred or uncertain, most often the ends.

How the values were obtained:
[1] = system: cypris larvae of Striped Barnacle; test: Evaluation of antifouling activities and toxicity against the cypris larvae of Striped Barnacle (24-well plate, adhesion and mortality after 48 h); type: in vivo, Amphibalanus amphitrite; conditions: within the tested concentration range
[2] = system: juvenile shellfish of Mediterranean mussel; test: Evaluation of the antifouling activity and toxicity against the juvenile shellfish of Mediterranean mussel (coated glass beaker, 3 days); type: in vivo, Mytilus galloprovincialis; conditions: for bottom surface-adhered individuals % / bottom surface-crawling individuals % / overturned individuals or closed shell individuals (unadhered) % / wall surface-adhered individuals % / number of byssal threads on the bottom surface / bottom surface-adhered individuals No. / bottom surface-crawling individuals No. / overturned individuals or closed shell individuals (unadhered) No. / wall surface-adhered individuals No.: three days; for bottom surface-adhered individuals No. / bottom surface-crawling individuals No. / overturned individuals or closed shell individuals (unadhered) No. / wall surface-adhered individuals No.: twelve individuals
[3] = system: cypris larvae of Striped Barnacle; conditions: Reference value, see Table 1 in non-Patent literature 8; cited from earlier work

CC(C)C(NC(=O)[C@@H]1CCCN1C(=O)[C@H](Cc1ccccc1)NC(=O)OC(C)(C)C)C(C)C(=O)OCc1ccccc1 (stereo partly shown) [tripeptide 6]
antifouling activity (in words) [1]: moderate antifouling activity

CC(C)C(NC(=O)[C@@H]1CCCN1C(=O)[C@H](Cc1ccccc1)NC(=O)OC(C)(C)C)C(C)C(=O)O (stereo partly shown) [tripeptide 7]
antifouling activity (in words) [1]: no antifouling activity

CC(C)[C@@H](NC(=O)[C@@H]1CCCN1C(=O)[C@@H](NC(=O)OC(C)(C)C)[C@H](C)Cc1ccccc1)[C@@H](C)C(=O)OCc1ccccc1 [Boc-3, reference compound]
bottom surface-adhered individuals % ([2]; 3 µg/mL (30 µg)): 25.0% | bottom surface-crawling individuals % ([2]; 3 µg/mL (30 µg)): 25.0% | overturned individuals or closed shell individuals (unadhered) % ([2]; 3 µg/mL (30 µg)): 33.3% | wall surface-adhered individuals % ([2]; 3 µg/mL (30 µg)): 16.7% | number of byssal threads on the bottom surface ([2]; 3 µg/mL (30 µg), control group 118): 23 | bottom surface-adhered individuals No. ([2]; 3 µg/mL (30 µg)): 3 | bottom surface-crawling individuals No. ([2]; 3 µg/mL (30 µg)): 3 | overturned individuals or closed shell individuals (unadhered) No. ([2]; 3 µg/mL (30 µg)): 4 | wall surface-adhered individuals No. ([2]; 3 µg/mL (30 µg)): 2 | bottom surface-adhered individuals % ([2]; 10 µg/mL (100 µg)): 8.3% | bottom surface-crawling individuals % ([2]; 10 µg/mL (100 µg)): 0.0% | number of byssal threads on the bottom surface ([2]; 10 µg/mL (100 µg)): 18 | overturned individuals or closed shell individuals (unadhered) % ([2]; 10 µg/mL (100 µg)): 58.3% | wall surface-adhered individuals % ([2]; 10 µg/mL (100 µg)): 33.3% | bottom surface-adhered individuals No. ([2]; 10 µg/mL (100 µg)): 1 | bottom surface-crawling individuals No. ([2]; 10 µg/mL (100 µg)): 0 | overturned individuals or closed shell individuals (unadhered) No. ([2]; 10 µg/mL (100 µg)): 7 | wall surface-adhered individuals No. ([2]; 10 µg/mL (100 µg)): 4 | antifouling effect (overall determination in words) ([2]; juvenile Mediterranean mussel, 3.0 µg/mL and 10 µg/mL): effective | Antifouling activity 48h EC50 [3]: 0.79 µg/mL
